Source: PubChem BioAssay AID652243 (Drosophila RNAi Screening Center, 2013)

- Assay: 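Fly regulators of androgen-dependent reporter output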 (primary screen)
- Cell system: Drosophila S2R+ cells
- Knock-down reagent: long dsRNA against Drosophila genes
- Duration: 72 h (48 h, then 24 h hormone)
- Conditions: synthetic androgen R1881 at 10 nM for 24 h
- Read-out: 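Firefly light from an androgen-responsive reporter and Renilla control light per well, raw and unnormalised, for each of two replicates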
- Reading the numbers: firefly reporter light: higher = more light from androgen-responsive reporter; Renilla control light: higher = more constitutive control signal (cell number, transfection)
- Hit rule: 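Across duplicate plates, a knock-down whose log firefly/Renilla ratio shifted a set fold down or up from the GFP/LacZ control mean was a hit; the downward cut appears as both 1.5 and 3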
- Meaning of the calls: active = hit: reporter lowered or raised; inactive = no hit
In all, the deposit lists about 24,000 reagents; below is a random part of those that have a named target and a result. Of all reagents, 246 (1%) are marked active. 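Plates not normalised; calls are printed but the firefly/Renilla ratio behind them is not deposited; fold cut for lowering reported inconsistently.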 The raw values are shown without normalisation. Reagents against one gene are numbered here. A plus sign joins genes that one reagent is predicted to hit. Not stated in the record: the amount of reagent.

Lrp4
- firefly reporter light, replicate 1: 1.02e5
- firefly reporter light, replicate 2: 67070
- Renilla control light, replicate 1: 4.85e5
- Renilla control light, replicate 2: 5.23e5
- outcome: inactive

CG14610 + asRNA:CR42738
- firefly reporter light, replicate 1: 53488
- firefly reporter light, replicate 2: 78076
- Renilla control light, replicate 1: 1.81e6
- Renilla control light, replicate 2: 1.16e6
- outcome: inactive

ncd
- firefly reporter light, replicate 1: 72508
- firefly reporter light, replicate 2: 51102
- Renilla control light, replicate 1: 5.13e5
- Renilla control light, replicate 2: 3.49e5
- outcome: inactive

nonA-l #1
- firefly reporter light, replicate 1: 56607
- firefly reporter light, replicate 2: 66932
- Renilla control light, replicate 1: 1.87e6
- Renilla control light, replicate 2: 1.82e6
- outcome: inactive

nonA-l #2
- firefly reporter light, replicate 1: 4.55e5
- firefly reporter light, replicate 2: 2.17e5
- Renilla control light, replicate 1: 3.93e5
- Renilla control light, replicate 2: 5.02e5
- outcome: inactive

CG15745 (retired record)
- firefly reporter light, replicate 1: 5.12e5
- firefly reporter light, replicate 2: 4.45e5
- Renilla control light, replicate 1: 3.36e6
- Renilla control light, replicate 2: 3.87e6
- outcome: inactive

Part of the list above, showing only “firefly reporter light, replicate 2”:
ncd = 51102
nonA-l #1 = 66932

Further results:
CG42505 + CG42504 + CG31358 #1
- firefly reporter light, replicate 1: 45451
- firefly reporter light, replicate 2: 75524
- Renilla control light, replicate 1: 6.40e5
- Renilla control light, replicate 2: 7.15e5
- outcome: inactive

CG42505 + CG42504 + CG31358 #2
- firefly reporter light, replicate 1: 3.30e5
- firefly reporter light, replicate 2: 4.40e5
- Renilla control light, replicate 1: 2.21e6
- Renilla control light, replicate 2: 3.14e6
- outcome: inactive

CG42505 + CG42504 + CG31358 #3
- firefly reporter light, replicate 1: 1.37e5
- firefly reporter light, replicate 2: 1.74e5
- Renilla control light, replicate 1: 2.12e6
- Renilla control light, replicate 2: 2.06e6
- outcome: inactive

Ir64a #1
- firefly reporter light, replicate 1: 37034
- firefly reporter light, replicate 2: 49972
- Renilla control light, replicate 1: 9.36e5
- Renilla control light, replicate 2: 1.32e6
- outcome: inactive

Ir64a #2
- firefly reporter light, replicate 1: 1.51e5
- firefly reporter light, replicate 2: 1.45e5
- Renilla control light, replicate 1: 1.60e6
- Renilla control light, replicate 2: 1.29e6
- outcome: inactive

Loxl2
- firefly reporter light, replicate 1: 9.62e5
- firefly reporter light, replicate 2: 6.22e5
- Renilla control light, replicate 1: 1.43e6
- Renilla control light, replicate 2: 1.33e6
- outcome: inactive
